Source: the supplement of paper PMC9744312
Structures can show the parent of a compound that is named as a salt. The list shows a part of the results. This is a noisy data set.

Tested on: Peyronie's disease tunica albuginea primary fibroblasts
Experiment: inhibition of TGF-beta1-induced alpha-SMA expression (myofibroblast transformation), relative to TGF-beta1-only and untreated controls; higher = stronger inhibition of myofibroblast transformation
Details: 10 µM; TGF-beta1 10 ng/mL; 72 h

SMILES | inhibition of TGF-beta1-induced alpha-SMA expression
C[C@@H](O)[C@@H]1NC(=O)[C@H](CCCCN)NC(=O)[C@@H](Cc2c[nH]c3ccccc23)NC(=O)[C@H](Cc2ccccc2)NC(=O)[C@@H](NC(=O)[C@H](N)Cc2ccccc2)CSSC[C@@H](C(=O)N[C@H](CO)[C@@H](C)O)NC1=O [Octreotide Acetate] | 11.3%
O=C(CCCN1CCN(c2ccccn2)CC1)c1ccc(F)cc1 [Azaperone] | 13.4%
Nc1c2ccccc2nc2ccccc12 [9-Aminoacridine] | > 100%
Cc1ccc(=O)n(-c2ccccc2)c1 [Pirfenidone] | -1.57%
CC(C)OC(=O)OCOP(=O)(CO[C@H](C)Cn1cnc2c(N)ncnc21)OCOC(=O)OC(C)C [Tenofovir Disoproxil Fumarate] | 15%
CC(C)(CO)C(O)C(=O)NCCC(=O)O [Calcium D-Panthotenate] | > 100%
Cc1c(-c2cnccn2)ssc1=S [Oltipraz] | 16.1%
CCN(CC)CCNC(C(=O)OCCC(C)C)c1ccccc1 (stereo not drawn) [Camylofin Chlorhydrate] | 77.2%
C[C@@H]1C[C@H]2[C@@H]3CCC4=CC(=O)C=C[C@]4(C)[C@@]3(F)[C@@H](O)C[C@]2(C)[C@@]1(O)C(=O)COP(=O)(O)O [Dexamethasone Sodium Phosphate] | 82%
Cc1ccc(F)c(NC(=O)Nc2ccc(-c3cccc4[nH]nc(N)c34)cc2)c1 [Linifanib (ABT-869)] | 6.58%
C[C@]12CC[C@@H]3c4ccc(OC(=O)c5ccccc5)cc4CC[C@H]3[C@@H]1CC[C@@H]2O [Estradiol Benzoate] | > 100%
CN1CCN(C(c2ccccc2)c2ccccc2)CC1 [Cyclizine 2HCl] | 13.4%
COC(=O)[C@@H]1CC2=CC(=O)CC[C@]2(C)[C@@]23O[C@@H]2C[C@@]2(C)[C@@H](CC[C@@]24CCC(=O)O4)[C@H]13 [Eplerenone] | 16.7%
CC[C@H](CO)Nc1nc(NCc2ccccc2)c2ncn(C(C)C)c2n1 [Roscovitine (Seliciclib,CYC202)] | -12.3%
OCCN(CCO)c1nc(N2CCCCC2)c2nc(N(CCO)CCO)nc(N3CCCCC3)c2n1 [Dipyridamole] | 40.2%
C[N+](C)(C)CC(=O)O [Betaine] | 1.44%
O=c1oc2c(O)c(O)cc3c(=O)oc4c(O)c(O)cc1c4c23 [Ellagic acid] | -0.583%
CC(C)COc1ccc(CNC(=O)N(Cc2ccc(F)cc2)C2CCN(C)CC2)cc1 [Pimavanserin] | > 100%
O=C1NS(=O)(=O)c2ccccc21 [Saccharin] | -4.74%
CC(=O)c1cc2c(o1)C(=O)c1ccccc1C2=O [Napabucasin] | > 100%
CCC(=O)O[C@@H]1CC(=O)O[C@H](C)C/C=C/C=C/[C@H](O)[C@H](C)C[C@H](CC=O)[C@H](O[C@@H]2O[C@H](C)[C@@H](O[C@H]3C[C@@](C)(O)[C@@H](OC(=O)CC)[C@H](C)O3)[C@H](N(C)C)[C@H]2O)[C@H]1OC [Midecamycin] | 0.345%
CCN(CC)CC(=O)Nc1c(C)cccc1C [Lidocaine hydrochloride] | -4.67%
CCN(CC)CC(=O)Nc1c(C)cccc1C [Lidocaine] | 9.45%

Random excerpt: 4 entries already listed
SMILES | inhibition of TGF-beta1-induced alpha-SMA expression
OCCN(CCO)c1nc(N2CCCCC2)c2nc(N(CCO)CCO)nc(N3CCCCC3)c2n1 [Dipyridamole] | 40.2%
C[C@]12CC[C@@H]3c4ccc(OC(=O)c5ccccc5)cc4CC[C@H]3[C@@H]1CC[C@@H]2O [Estradiol Benzoate] | > 100%
O=C(CCCN1CCN(c2ccccn2)CC1)c1ccc(F)cc1 [Azaperone] | 13.4%
Cc1ccc(=O)n(-c2ccccc2)c1 [Pirfenidone] | -1.57%

Remaining list, next part

SMILES | inhibition of TGF-beta1-induced alpha-SMA expression
CC(=O)OCC(=O)[C@@]12OC(C)(C)O[C@@H]1C[C@H]1[C@@H]3C[C@H](F)C4=CC(=O)C=C[C@]4(C)[C@@]3(F)[C@@H](O)C[C@@]12C [Fluocinonide] | 42.5%
c1ccc2c(CC3=NCCN3)cccc2c1 [Naphazoline HCl] | -13.8%
CN1C(CCl)Nc2cc(Cl)c(S(N)(=O)=O)cc2S1(=O)=O (stereo not drawn) [Methyclothiazide] | 36.4%
C=CC1=C(C(=O)O)N2C(=O)[C@@H](NC(=O)/C(=N\O)c3csc(N)n3)[C@H]2SC1 [Cefdinir] | -14.6%
CC(=O)NS(=O)(=O)c1ccc(N)cc1 [Sulfacetamide sodium salt hydrate] | 17.9%
CC(=O)NS(=O)(=O)c1ccc(N)cc1 [Sulfacetamide Sodium] | -9.54%
CC(=O)NS(=O)(=O)c1ccc(N)cc1 [Sulfacetamide] | 15.6%
Cc1cn([C@H]2C=C[C@@H](CO)O2)c(=O)[nH]c1=O [Stavudine (d4T)] | 7.49%
CC[C@H](C)[C@@H]1NC(=O)[C@H](Cc2ccc(O)cc2)NC(=O)[C@@H](N)CSSC[C@@H](C(=O)N2CCC[C@H]2C(=O)N[C@@H](CC(C)C)C(=O)NCC(N)=O)NC(=O)[C@H](CC(N)=O)NC(=O)[C@H](CCC(N)=O)NC1=O [Oxytocin (Syntocinon)] | 8.32%
CC(=C(CCOC(=O)C(C)C)SSC(CCOC(=O)C(C)C)=C(C)N(C=O)Cc1cnc(C)nc1N)N(C=O)Cc1cnc(C)nc1N (stereo in doubt) [Sulbutiamine] | 4.47%
CNC(=O)c1cc(Oc2ccc(NC(=O)Nc3ccc(Cl)c(C(F)(F)F)c3)cc2)ccn1 [Sorafenib Tosylate] | -17.9%
CNC(=O)c1cc(Oc2ccc(NC(=O)Nc3ccc(Cl)c(C(F)(F)F)c3)cc2)ccn1 [Sorafenib] | 88.6%
COc1cccc2c1C(=O)c1c(O)c3c(c(O)c1C2=O)C[C@@](O)(C(C)=O)C[C@@H]3O[C@H]1C[C@H](N)[C@H](O)[C@H](C)O1 [Daunorubicin HCl] | > 100%
Cc1c(NC(=O)c2cccnc2)c(=O)n(-c2ccccc2)n1C [Nifenazone] | 3.62%
CS(=O)(=O)OCCCCOS(C)(=O)=O [Busulfan] | 33.9%
CC(O)Cn1cnc2c1c(=O)n(C)c(=O)n2C (stereo not drawn) [Proxyphylline] | 3.22%
CO/N=C(\C(=O)N[C@@H]1C(=O)N2C(C(=O)[O-])=C(C[n+]3cccc4c3CCC4)CS[C@H]12)c1csc(N)n1 [Cefpirome sulfate] | 11.5%
CC(C)NC[C@@H](O)COc1ccc(CC(N)=O)cc1 [(R)-(+)-Atenolol HCl] | 13.9%
C[C@@H](O[C@H]1OCCN(Cc2nn(P(=O)(O)O)c(=O)[nH]2)[C@H]1c1ccc(F)cc1)c1cc(C(F)(F)F)cc(C(F)(F)F)c1 [Fosaprepitant dimeglumine salt] | 15.1%
CCC(C)(Oc1ccc(C2(c3ccc(OC(C)(CC)C(=O)O)cc3)CCCCC2)cc1)C(=O)O (stereo not drawn) [Clinofibrate] | -5.13%
COc1cc2nccc(Oc3ccc(NC(=O)NC4CC4)c(Cl)c3)c2cc1C(N)=O [lenvatinib Mesylate] | -46.8%
COc1cc2nccc(Oc3ccc(NC(=O)NC4CC4)c(Cl)c3)c2cc1C(N)=O [Lenvatinib (E7080)] | -186%
CC(C)(CO)c1cc2cc(NC(=O)C3(c4ccc5c(c4)OC(F)(F)O5)CC3)c(F)cc2n1C[C@@H](O)CO [Tezacaftor(VX-661)] | 32.3%

SMILES | inhibition of TGF-beta1-induced alpha-SMA expression
CC[C@@H]1C(=O)OC[C@@H]1Cc1cncn1C [Pilocarpine HCl] | 24.4%
O=c1c(-n2ccnn2)c[nH]n1-c1cc(N2CCOCC2)ncn1 [Molidustat (BAY 85-3934)] | 86.6%
Cn1cnc2c(F)c(Nc3ccc(Br)cc3F)c(C(=O)NOCCO)cc21 | -95.3%
NC(=O)c1cnccn1 [Pyrazinamide] | 40.1%
CO[C@@H]1[C@H](OC(=O)/C=C/C=C/C=C/C=C/C(=O)O)CC[C@]2(CO2)[C@H]1[C@@]1(C)O[C@@H]1CC=C(C)C [Fumagillin] | 12.4%
O=C(CCNNC(=O)c1ccncc1)NCc1ccccc1 [Nialamide] | 7.69%
CSc1nc2cc(Cl)c(Oc3cccc(Cl)c3Cl)cc2[nH]1 [Triclabendazole] | -20.5%
Cc1ccccc1N1CCN(CCc2nnc3n2CCCC3)CC1 [Dapiprazole Hydrochloride] | -22.3%
O=C1[C@@H]2[C@H]3CC[C@H](C3)[C@@H]2C(=O)N1C[C@@H]1CCCC[C@H]1CN1CCN(c2nsc3ccccc23)CC1 [lurasidone] | 11.4%
CCCCC[C@H](O)/C=C/[C@H]1[C@H](O)CC(=O)[C@@H]1C/C=C\CCCC(=O)O [Prostaglandin E2 (PGE2)] | 40.6%
COc1cccc2c1C(=O)c1c(O)c3c(c(O)c1C2=O)C[C@@](O)(C(=O)CO)C[C@@H]3O[C@H]1C[C@H](N)[C@@H](O)[C@H](C)O1 [Epirubicin HCl] | > 100%
CCCN(CCC)CCc1cccc2c1CC(=O)N2 [Ropinirole HCl] | 19.2%
O[C@H]1[C@H](O)[C@@H](O)[C@H](O)[C@@H](O)[C@H]1O [i-Inositol] | -18.6%
CC(=O)O[C@H]1C(=O)[C@@]2(C)[C@H]([C@H](OC(=O)c3ccccc3)[C@]3(O)C[C@H](OC(=O)[C@H](O)[C@@H](NC(=O)c4ccccc4)c4ccccc4)C(C)=C1C3(C)C)[C@]1(OC(C)=O)CO[C@@H]1C[C@@H]2O [Paclitaxel] | 86.5%
Cc1[nH]c(=O)c(C#N)cc1-c1ccc2nccn2c1 [Olprinone] | 18.9%
COc1c(-c2ccc3cc(NS(C)(=O)=O)ccc3c2)cc(-n2ccc(=O)[nH]c2=O)cc1C(C)(C)C [Dasabuvir(ABT-333)] | 35.3%
O=C([O-])[C@H](O)[C@@H](O)[C@H](O)[C@H](O)CO.O=C([O-])[C@H](O)[C@@H](O)[C@H](O)[C@H](O)CO.[Ca+2] [Calcium gluconate] | 13.4%
CC1=C(/C=C/C(C)=C/C=C/C(C)=C/CO)C(C)(C)CCC1 [Vitamin A] | 33.4%
Cc1ncc([N+](=O)[O-])n1CC(C)O (stereo not drawn) [Secnidazole] | 12%
O=C(O)c1ccccc1OP(=O)(O)O [Fosfosal] | 14.8%
COc1ccc2cc([C@H](C)C(=O)O)ccc2c1 [Naproxen Sodium] | 17.5%
C[C@]12CCC(=O)C=C1[C@@H]1C[C@@H]1[C@H]1[C@@H]3[C@@H]4C[C@@H]4[C@@]4(CCC(=O)O4)[C@@]3(C)CC[C@@H]12 [Drospirenone] | -5.96%
